According to US20160101109A1, “METHOD OF TREATING ARTHRITIS” (AbbVie Inc., priority 2007, published 2016):
At least one compound was matched to its structure with a doubt left.

Test system: DBA/1J (H-2q) mice immunized with collagen
Experiment: mouse model of arthritis (collagen immunization, zymosan boost)
Format: in vivo
Conditions: EXAMPLE A 50 mg/kg per day, dexamethasone 1 mg/kg per day, 3 weeks, p<0.5 versus vehicle control
Description: Also, a standard mouse model of arthritis using DBA/1J (H-2q) mice immunized with collagen and boosted with zymosan 21 days later was used to induce disease. The mice were than treated with EXAMPLE A (50 mg/kg per day), vehicle (with no drug) and dexamethasone (1 mg/kg per day) at the first clinical sign of disease. The mice were then evaluated for mean arthritic score (MAS) and paw swelling for 3 weeks after treatment began.

C[C@@H]1C[C@H]2[C@@H]3CCC4=CC(=O)C=C[C@]4(C)[C@@]3(F)[C@@H](O)C[C@]2(C)[C@@]1(O)C(=O)CO [dexamethasone, reference compound]
paw swelling (FIG. 1): inhibition of arthritis | arthritis as assessed by MAS (mean arthritic score) (FIG. 2): inhibition of arthritis
